These are yes or no findings as the source states them, for the method shown. In cells and extracts the contact can be indirect. These calls come from enrichment with a bait or labelling near it, and not all partners need be listed.
Biological target: cyclin B1 (human (endogenous in NCI-H1048 and NCI-H446)) (UniProt P14635)
Experiment: affinity purification with mass spectrometry

By UniProt entry, the sequences of proteins in these tests, tags left out.
UniProt P14635: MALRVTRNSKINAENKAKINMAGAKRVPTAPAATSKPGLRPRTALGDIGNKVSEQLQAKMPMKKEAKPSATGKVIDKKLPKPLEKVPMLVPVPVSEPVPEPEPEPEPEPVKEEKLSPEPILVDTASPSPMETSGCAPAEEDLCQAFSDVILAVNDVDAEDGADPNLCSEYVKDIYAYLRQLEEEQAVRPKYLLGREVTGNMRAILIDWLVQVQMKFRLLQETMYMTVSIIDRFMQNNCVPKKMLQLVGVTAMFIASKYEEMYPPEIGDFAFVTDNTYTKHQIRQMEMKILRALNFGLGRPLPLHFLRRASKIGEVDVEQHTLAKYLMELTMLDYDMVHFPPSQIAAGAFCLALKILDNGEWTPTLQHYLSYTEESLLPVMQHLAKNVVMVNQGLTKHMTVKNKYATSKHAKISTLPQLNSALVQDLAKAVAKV
UniProt P46527: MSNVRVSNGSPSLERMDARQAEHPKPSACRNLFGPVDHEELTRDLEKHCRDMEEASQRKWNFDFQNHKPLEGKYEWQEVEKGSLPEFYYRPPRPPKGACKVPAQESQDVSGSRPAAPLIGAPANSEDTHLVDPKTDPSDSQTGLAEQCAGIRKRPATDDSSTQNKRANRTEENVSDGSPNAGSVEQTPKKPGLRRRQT

Substance: p27^Kip1 (from UniProt P46527 1-198)
- binding: binds

— paper doi:10.1101/2024.08.01.605889
